Laboratory results published in paper PMC10775985.
No constants are given. Whether binding was seen depends on the method and setting.

Sequences of proteins named here, by UniProt entry; tags and fusion partners are left off.
UniProt P05434: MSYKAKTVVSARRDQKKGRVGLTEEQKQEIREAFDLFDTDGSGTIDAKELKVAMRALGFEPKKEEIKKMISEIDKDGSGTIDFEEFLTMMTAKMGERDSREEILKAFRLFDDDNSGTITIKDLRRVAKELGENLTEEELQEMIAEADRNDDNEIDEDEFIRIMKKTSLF

Target: CrCen-6His (Chlamydomonas reinhardtii centrin) (Chlamydomonas reinhardtii) (UniProt P05434)
Assay: light microscopy of droplets in purified protein solutions; self-assembly into droplets; concentrated recombinant centrin (100-200 μM), 2 mM CaCl2 added, then 10 mM EDTA; 50 mM BisTris pH 7.1, 37°C; both purified

binding: no binding (condition: with 10 mM EDTA)
Substance: CrCen-6His (Chlamydomonas reinhardtii centrin) (from UniProt P05434 1-169)
